# From publication PMC7819943, “Rice protein-binding microarrays: a tool to detect cis-acting elements near promoter regions in rice”
# This is one part of the list.
# Target: T1, OsSMF1 (Oryza sativa, UniProt Q6ZLB0 1-436)
# T1 sequence: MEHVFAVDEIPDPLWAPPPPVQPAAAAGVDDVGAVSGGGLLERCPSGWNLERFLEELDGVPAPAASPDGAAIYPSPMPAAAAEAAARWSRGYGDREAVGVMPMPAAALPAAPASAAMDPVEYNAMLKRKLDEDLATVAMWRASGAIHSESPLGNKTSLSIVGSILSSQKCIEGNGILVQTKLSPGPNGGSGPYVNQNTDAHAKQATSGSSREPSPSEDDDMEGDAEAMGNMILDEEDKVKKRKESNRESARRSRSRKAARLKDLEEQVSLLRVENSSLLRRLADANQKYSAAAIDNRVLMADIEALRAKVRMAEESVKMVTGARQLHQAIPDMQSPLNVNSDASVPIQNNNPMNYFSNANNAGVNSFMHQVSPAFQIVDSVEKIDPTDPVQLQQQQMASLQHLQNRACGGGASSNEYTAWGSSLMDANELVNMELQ
# Assay: protein-binding microarray (RPBM); PBS, 2% BSA, 51.3 ng/ul salmon testes DNA, 50 uM zinc acetate, 200 nM TF, 25 C, 1 h; high values mean tight binding
# Settings: protein: recombinant; tags: N-terminal polyhistidine and DsRed monomer fusion (pET32a); chain copies: 2; label: CyDye5-dUTP incorporated in the synthesized complementary strand; 3' TTTTT single-stranded linker to array surface; dsDNA, one strand shown
# Outline: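 Binding signal is reported as fluorescence intensity per feature (arbitrary units) from an Axon 4000B scanner. Incubation used 200 nM of each Ni–NTA-purified, N-terminally polyhistidine- and DsRed-fused transcription factor from E. coli BL21-CodonPlus on a double-stranded custom Agilent array for 1 h at 25 °C, with 50 µM zinc acetate in the buffer, followed by washing.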
row,Sequence,binding signal
1,TTTGTCCAGGCGGCGTGTCGGGTGTTCGCTCGCAGTGGCCCGGAGTCACCTAGTGCAG,3950 fluorescence intensity (a.u.)
2,CCCCGTGGTGCAGCGCACGTGCGAGGTCGTTACCCCTCTCCGGAGTCACCTAGTGCAG,3280 fluorescence intensity (a.u.)
3,TATATGAAATCAAAATAAGTGTCTTTACCATGTCATCGTCCGGAGTCACCTAGTGCAG,5260 fluorescence intensity (a.u.)
4,CTCATGGGCTCCTGCTGCTACCACCAACTGATCTCTCCTACGGAGTCACCTAGTGCAG,3170 fluorescence intensity (a.u.)
5,GAAATTGTGCATTCGGTTAAGCCCTGACGTGGATTTTAGCCGGAGTCACCTAGTGCAG,6800 fluorescence intensity (a.u.)
6,GGGCGGGCGGGCTCGAGGTTGTGGTGGGGCGTGTGGCAGGCGGAGTCACCTAGTGCAG,4690 fluorescence intensity (a.u.)
7,CAGGGCAGCGGCAGGTGGGGAGGAGGCCGGCGGGTCGGCGCGGAGTCACCTAGTGCAG,3470 fluorescence intensity (a.u.)
8,TCACCAAGACCATAAATTGACACATCGCATGCCACCAGGGCGGAGTCACCTAGTGCAG,5190 fluorescence intensity (a.u.)
9,ACACTTCAACGTTGCATACGTGGCGCCCCACCACACCACCCGGAGTCACCTAGTGCAG,20700 fluorescence intensity (a.u.)
10,TATTGGATCGCGATTGACCGTTACCTATAGGTACTGTACCCGGAGTCACCTAGTGCAG,5960 fluorescence intensity (a.u.)
11,CAAGGCTTGATGATGTACAGCGTGGAATTACGTATTCTATCGGAGTCACCTAGTGCAG,6470 fluorescence intensity (a.u.)
12,TGTTCTTCAACATGATATTCGAGCCCGTCAGCAATGGCAACGGAGTCACCTAGTGCAG,4480 fluorescence intensity (a.u.)
13,CCATGTAAGTGCCACGTCAACGCCACGTGGATCGAAGACTCGGAGTCACCTAGTGCAG,55500 fluorescence intensity (a.u.)
14,GCATGCCAACACACCTACGTTCGCTTCATAACTCCACAAGCGGAGTCACCTAGTGCAG,3920 fluorescence intensity (a.u.)
15,GATGCCATCGGGATTCGAAAGGGTGCAACGTGTAGGCGTGCGGAGTCACCTAGTGCAG,4300 fluorescence intensity (a.u.)
16,CTAGAGGTGTGCTGATAGAAAGTCGGTACGTGGCCTGTCACGGAGTCACCTAGTGCAG,3830 fluorescence intensity (a.u.)
17,GCCCTCTTCCTATTGCCACGGATGCAATTTATTATGCTGGCGGAGTCACCTAGTGCAG,6700 fluorescence intensity (a.u.)
18,CTGAACGGGTTCAACCTCCGATTGTTCGATTCCGCGTCATCGGAGTCACCTAGTGCAG,5150 fluorescence intensity (a.u.)
19,GCTCTCCACAAAGGTGACAGTGAATCAGTTCATTCTGAAACGGAGTCACCTAGTGCAG,3370 fluorescence intensity (a.u.)
20,ACGCAGTTGTTTGTGTCAGCGGCCACGTCACAAACCATTGCGGAGTCACCTAGTGCAG,7430 fluorescence intensity (a.u.)
21,AACCAGCCATGTAGACACCACGTCAGCTGAAACCGCCATTCGGAGTCACCTAGTGCAG,19600 fluorescence intensity (a.u.)

# Some of the entries so far, tab-delimited:
row	Sequence	binding signal
3	TATATGAAATCAAAATAAGTGTCTTTACCATGTCATCGTCCGGAGTCACCTAGTGCAG	5260 fluorescence intensity (a.u.)
4	CTCATGGGCTCCTGCTGCTACCACCAACTGATCTCTCCTACGGAGTCACCTAGTGCAG	3170 fluorescence intensity (a.u.)
5	GAAATTGTGCATTCGGTTAAGCCCTGACGTGGATTTTAGCCGGAGTCACCTAGTGCAG	6800 fluorescence intensity (a.u.)
6	GGGCGGGCGGGCTCGAGGTTGTGGTGGGGCGTGTGGCAGGCGGAGTCACCTAGTGCAG	4690 fluorescence intensity (a.u.)
7	CAGGGCAGCGGCAGGTGGGGAGGAGGCCGGCGGGTCGGCGCGGAGTCACCTAGTGCAG	3470 fluorescence intensity (a.u.)
9	ACACTTCAACGTTGCATACGTGGCGCCCCACCACACCACCCGGAGTCACCTAGTGCAG	20700 fluorescence intensity (a.u.)
10	TATTGGATCGCGATTGACCGTTACCTATAGGTACTGTACCCGGAGTCACCTAGTGCAG	5960 fluorescence intensity (a.u.)
12	TGTTCTTCAACATGATATTCGAGCCCGTCAGCAATGGCAACGGAGTCACCTAGTGCAG	4480 fluorescence intensity (a.u.)
13	CCATGTAAGTGCCACGTCAACGCCACGTGGATCGAAGACTCGGAGTCACCTAGTGCAG	55500 fluorescence intensity (a.u.)
14	GCATGCCAACACACCTACGTTCGCTTCATAACTCCACAAGCGGAGTCACCTAGTGCAG	3920 fluorescence intensity (a.u.)
16	CTAGAGGTGTGCTGATAGAAAGTCGGTACGTGGCCTGTCACGGAGTCACCTAGTGCAG	3830 fluorescence intensity (a.u.)
20	ACGCAGTTGTTTGTGTCAGCGGCCACGTCACAAACCATTGCGGAGTCACCTAGTGCAG	7430 fluorescence intensity (a.u.)

# (list continues)

row,Sequence,binding signal
1,AATTTCTTCGGAATTTTGTCATCCACCCAGAAACTACCTGCGGAGTCACCTAGTGCAG,3750 fluorescence intensity (a.u.)
2,TACGAAACCGGATCACTTTGGGTCCTCAGGCAGTTTTGACCGGAGTCACCTAGTGCAG,4050 fluorescence intensity (a.u.)
3,CCCTTCGCAAAAGCCACGCGCCACCAAATCCTCCTTTTCTCGGAGTCACCTAGTGCAG,3950 fluorescence intensity (a.u.)
4,GCGCGCGCGGGCGCGGCGTCGCTCCCAGCGTGCGCCATGGCGGAGTCACCTAGTGCAG,6390 fluorescence intensity (a.u.)
5,GTATGTCCGAGATTTAGTGTTACACGTCAGATCCAACACACGGAGTCACCTAGTGCAG,15700 fluorescence intensity (a.u.)
6,TTTGAGGGAGCTCAACATATATATGATGGTATCATTTGCTCGGAGTCACCTAGTGCAG,4410 fluorescence intensity (a.u.)
7,TAGATATAATTACCTTTTCAGGACTCTATCCACGTGCGGCCGGAGTCACCTAGTGCAG,3550 fluorescence intensity (a.u.)
8,CTCAATTAATTTCGTCCTAAGTGAACCTGTCATCTGTAGCCGGAGTCACCTAGTGCAG,3420 fluorescence intensity (a.u.)
9,TATAATTATTTTGAGTCACTACTAACCTCCTTGCCCGTTACGGAGTCACCTAGTGCAG,4760 fluorescence intensity (a.u.)
10,CCCACCGGCTGCGCGCCGATCCATCCATCCACACAAGGCCCGGAGTCACCTAGTGCAG,3150 fluorescence intensity (a.u.)
11,AGAGGAAGAGATGACTCAGCCTGACATGTGGGGCCCATGCCGGAGTCACCTAGTGCAG,8890 fluorescence intensity (a.u.)
12,GTGATATTTTACACGATACAATATTGCTATATTTTGGGACCGGAGTCACCTAGTGCAG,24700 fluorescence intensity (a.u.)
13,AGGCGCTTGAATTGGGTGGCCTGACTCAGGCAACCGAATTCGGAGTCACCTAGTGCAG,4530 fluorescence intensity (a.u.)
14,GGAGACGTGGGTCCCGGCCGTGCTGCTCGGCCACGTGCGACGGAGTCACCTAGTGCAG,5030 fluorescence intensity (a.u.)
15,TTTCTGGCAGATCCAAGTAGCTGACTGGGTGCAGCATATGCGGAGTCACCTAGTGCAG,5010 fluorescence intensity (a.u.)
16,AATTTCTGACTCTTAGATTAGATGTGCCAGATCCTACGGACGGAGTCACCTAGTGCAG,3820 fluorescence intensity (a.u.)
17,GGCGGGCAGGGCGGACAGGAGGCGGGCGCGGCCGCGCGGGCGGAGTCACCTAGTGCAG,3240 fluorescence intensity (a.u.)
18,TCCTCATCATATGCAAGAGGACTCGATCCAGTCATGCAAACGGAGTCACCTAGTGCAG,3150 fluorescence intensity (a.u.)
19,ATTAGAAGCCTGAGGTTGGAGTGAAATATTCCGTGTTCAGCGGAGTCACCTAGTGCAG,3280 fluorescence intensity (a.u.)
20,TTTCTGGCCCAAACAAAGACATTGCCACGCTAACCGAACTCGGAGTCACCTAGTGCAG,9870 fluorescence intensity (a.u.)
21,ATTAAAAGATGTAGAAAGCGCTAACATGTCATCAAACTTTCGGAGTCACCTAGTGCAG,3280 fluorescence intensity (a.u.)
